# Test results reported in the supplement of paper PMC8728848.
# Some of the results follow.
# B1: AntigenI/IIA3VP1 (Streptococcus mutans), C9E3B4 (protein)
# chain: AANEADYQAKLTAYQTELARVQKANADAKAAYEAAVAANNAANAALTAENTAIKKRNADAKADYEAKLAKYQADLAKYQKDLADYPVKLKAYEDEQASIKAALAELEKHKNEDGNLTEPSAQNLVYDLEPNANLSLTTDGKFLKASAVDDAFSKSTSKAKYDQKILQLDDLDITNLEQSNDVASSMELYGNFGDKAGWSTTVSNNSQVKWGSVLLERGQSATATYTNLQNSYYNGKKISKIVYKYTVDPKSKFQGQKVWLGIFTDPTLGVFASAYTGQVEKNTSIFIKNEFTFYDEDGKPINFDNALLSVASLNREHNSIEMAKDYSGKFVKISGSSIGEKNGMIYATDTLNFKQGEGGSRWTMYKNSQAGSGWDSSDAPNSWYGAGAIKMSGPNNYVTVGATSATNVMPVSDMPVVPGKDNTDGKKPNIWYSLNGKIRAVNVPKVTKEKPTPPVKPTAPTKPTYETEKPLKPAPVAPNYEKEPTPPTRLEHHHHHH
# What was measured:
# Assay in all cases: glycan array binding signal (z-score within array); higher = stronger binding
# Settings in all cases: glycan notation: IUPAC condensed, linker removed
# Kdn(a2-3)Gal(b1-4)Glc = target: Kdn(a2-3)Gal(b1-4)Glc
# Method in brief: (§1)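 From the Consortium for Functional Glycomics database, 3228 arrays were curated, keeping only those whose protein sequence was available. Binding is given as a within-array Z-score averaged across arrays sharing a protein sequence and across linkers. Negative Z-scores can be read as non-binding.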
# Kdn(a2-3)Gal(b1-4)GlcNAc = target: Kdn(a2-3)Gal(b1-4)GlcNAc
# Method in brief: as §1
# [1] = target: Kdn(a2-3)Gal(b1-4)[Fuc(a1-3)]GlcNAc
# Method in brief: as §1
# Kdn(a2-6)Gal(b1-4)GlcNAc = target: Kdn(a2-6)Gal(b1-4)GlcNAc
# Method in brief: as §1
# [2] = target: Man(a1-2)Man(a1-2)Man(a1-3)Man
# Method in brief: as §1
# [3] = target: Man(a1-2)Man(a1-2)Man(a1-6)[Man(a1-3)]Man
# Method in brief: as §1
# Man(a1-2)Man(a1-3)Man = target: Man(a1-2)Man(a1-3)Man
# Method in brief: as §1
# [4] = target: Man(a1-2)Man(a1-3)[Man(a1-2)Man(a1-6)]Man
# Method in brief: as §1
# [5] = target: Man(a1-2)Man(a1-3)[Man(a1-2)Man(a1-6)]Man(a1-6)[Man(a1-2)Man(a1-2)Man(a1-3)]Man
# Method in brief: as §1
# [6] = target: Man(a1-2)Man(a1-3)[Man(a1-2)Man(a1-6)]Man(a1-6)[Man(a1-2)Man(a1-2)Man(a1-3)]Man(b1-4)GlcNAc(b1-4)GlcNAc
# Method in brief: as §1
# [7] = target: Man(a1-2)Man(a1-3)[Man(a1-6)]Man(a1-6)[Man(a1-2)Man(a1-3)]Man(b1-4)GlcNAc(b1-4)GlcNAc
# Method in brief: as §1
# [8] = target: Man(a1-2)Man(a1-6)[Man(a1-3)]Man(a1-6)[Man(a1-2)Man(a1-2)Man(a1-3)]Man
# Method in brief: as §1
# [9] = target: Man(a1-2)Man(a1-6)[Man(a1-3)]Man(a1-6)[Man(a1-2)Man(a1-2)Man(a1-3)]Man(b1-4)GlcNAc(b1-4)GlcNAc
# Method in brief: as §1
# Man(a1-3)[Man(a1-6)]Man = target: Man(a1-3)[Man(a1-6)]Man
# Method in brief: as §1
# [10] = target: Man(a1-3)[Man(a1-6)]Man(a1-6)[Man(a1-2)Man(a1-3)]Man(b1-4)GlcNAc(b1-4)GlcNAc
# Method in brief: as §1
# [11] = target: Man(a1-3)[Man(a1-6)]Man(a1-6)[Man(a1-3)]Man
# Method in brief: as §1
# [12] = target: Man(a1-3)[Man(a1-6)]Man(a1-6)[Man(a1-3)]Man(b1-4)GlcNAc(b1-4)GlcNAc
# Method in brief: as §1
# [13] = target: Man(a1-3)[Man(a1-6)]Man(b1-4)GlcNAc(b1-4)GlcNAc
# Method in brief: as §1
# [14] = target: Man(a1-3)[Man(a1-6)]Man(b1-4)GlcNAc(b1-4)[Fuc(a1-6)]GlcNAc
# Method in brief: as §1
# Man(a1-6)Man = target: Man(a1-6)Man
# Method in brief: as §1
# Man(b1-4)GlcNAc = target: Man(b1-4)GlcNAc
# Method in brief: as §1
# MurNAc(b1-4)GlcNAc = target: MurNAc(b1-4)GlcNAc
# Method in brief: as §1
# Neu5Ac(a2-3)Gal = target: Neu5Ac(a2-3)Gal
# Method in brief: as §1
# [15] = target: Neu5Ac(a2-3)Gal(b1-3)GalNAc
# Method in brief: as §1
# [16] = target: Neu5Ac(a2-3)Gal(b1-3)GalNAc(b1-3)Gal(a1-4)Gal(b1-4)Glc
# Method in brief: as §1
# [17] = target: Neu5Ac(a2-3)Gal(b1-3)GalNAc(b1-4)[Neu5Ac(a2-3)]Gal(b1-4)Glc
# Method in brief: as §1
# [18] = target: Neu5Ac(a2-3)Gal(b1-3)GalNAc(b1-4)[Neu5Ac(a2-8)Neu5Ac(a2-3)]Gal(b1-4)Glc
# Method in brief: as §1
# [19] = target: Neu5Ac(a2-3)Gal(b1-3)GalNAc6S
# Method in brief: as §1
# [20] = target: Neu5Ac(a2-3)Gal(b1-3)GlcNAc
# Method in brief: as §1
# [21] = target: Neu5Ac(a2-3)Gal(b1-3)GlcNAc(b1-2)Man
# Method in brief: as §1
# [22] = target: Neu5Ac(a2-3)Gal(b1-3)GlcNAc(b1-2)Man(a1-3)[GlcNAc(b1-4)][Neu5Ac(a2-3)Gal(b1-3)GlcNAc(b1-2)Man(a1-6)]Man(b1-4)GlcNAc(b1-4)GlcNAc
# Method in brief: as §1
# [23] = target: Neu5Ac(a2-3)Gal(b1-3)GlcNAc(b1-2)Man(a1-3)[Neu5Ac(a2-3)Gal(b1-3)GlcNAc(b1-2)Man(a1-6)]Man(b1-4)GlcNAc(b1-4)GlcNAc
# Method in brief: as §1
# [24] = target: Neu5Ac(a2-3)Gal(b1-3)GlcNAc(b1-3)Gal(b1-3)GlcNAc
# Method in brief: as §1
# [25] = target: Neu5Ac(a2-3)Gal(b1-3)GlcNAc(b1-3)Gal(b1-4)GlcNAc
# Method in brief: as §1
# [26] = target: Neu5Ac(a2-3)Gal(b1-3)GlcNAc(b1-3)GalNAc
# Method in brief: as §1
# [27] = target: Neu5Ac(a2-3)Gal(b1-3)GlcNAc(b1-4)Gal(b1-4)Glc
# Method in brief: as §1
# [28] = target: Neu5Ac(a2-3)Gal(b1-3)GlcNAc(b1-6)GalNAc
# Method in brief: as §1
# [29] = target: Neu5Ac(a2-3)Gal(b1-3)GlcNAc6S
# Method in brief: as §1
binder,measurement,setting,value
B1,glycan array binding signal (z-score),Kdn(a2-3)Gal(b1-4)Glc,0.138
same,glycan array binding signal (z-score),Kdn(a2-3)Gal(b1-4)GlcNAc,-0.618
same,glycan array binding signal (z-score),[1],1.13
same,glycan array binding signal (z-score),Kdn(a2-6)Gal(b1-4)GlcNAc,-1.05
same,glycan array binding signal (z-score),[2],-1.16
same,glycan array binding signal (z-score),[3],1.22
same,glycan array binding signal (z-score),Man(a1-2)Man(a1-3)Man,0.52
same,glycan array binding signal (z-score),[4],-0.805
same,glycan array binding signal (z-score),[5],-1.51
same,glycan array binding signal (z-score),[6],-0.709
same,glycan array binding signal (z-score),[7],-0.991
same,glycan array binding signal (z-score),[8],-1.48
same,glycan array binding signal (z-score),[9],0.975
same,glycan array binding signal (z-score),Man(a1-3)[Man(a1-6)]Man,0.13
same,glycan array binding signal (z-score),[10],0.368
same,glycan array binding signal (z-score),[11],-0.42
same,glycan array binding signal (z-score),[12],-0.422
same,glycan array binding signal (z-score),[13],-0.411
same,glycan array binding signal (z-score),[14],-0.693
same,glycan array binding signal (z-score),Man(a1-6)Man,-0.277
same,glycan array binding signal (z-score),Man(b1-4)GlcNAc,-0.516
same,glycan array binding signal (z-score),MurNAc(b1-4)GlcNAc,0.74
same,glycan array binding signal (z-score),Neu5Ac(a2-3)Gal,-0.347
same,glycan array binding signal (z-score),[15],-0.764
same,glycan array binding signal (z-score),[16],0.492
same,glycan array binding signal (z-score),[17],-0.369
same,glycan array binding signal (z-score),[18],0.855
same,glycan array binding signal (z-score),[19],-0.385
same,glycan array binding signal (z-score),[20],-0.143
same,glycan array binding signal (z-score),[21],-0.921
same,glycan array binding signal (z-score),[22],-0.193
same,glycan array binding signal (z-score),[23],0.303
same,glycan array binding signal (z-score),[24],-0.515
same,glycan array binding signal (z-score),[25],-1.16
same,glycan array binding signal (z-score),[26],-0.807
same,glycan array binding signal (z-score),[27],-0.89
same,glycan array binding signal (z-score),[28],0.016
same,glycan array binding signal (z-score),[29],-1.25

# Reprinted from the results shown (three entries):
binder,measurement,setting,value
B1,glycan array binding signal (z-score),[23],0.303
same,glycan array binding signal (z-score),[24],-0.515
same,glycan array binding signal (z-score),[25],-1.16
